Holding throughout (assay): co-IP
In test [1] the target is Wash (Drosophila (endogenous in Kc167 cells)) (UniProt Q7JW27).
For test [2], the target named is T1, Lamin C (Drosophila (endogenous in Kc167 cells)) (UniProt Q03427).
T1 sequence: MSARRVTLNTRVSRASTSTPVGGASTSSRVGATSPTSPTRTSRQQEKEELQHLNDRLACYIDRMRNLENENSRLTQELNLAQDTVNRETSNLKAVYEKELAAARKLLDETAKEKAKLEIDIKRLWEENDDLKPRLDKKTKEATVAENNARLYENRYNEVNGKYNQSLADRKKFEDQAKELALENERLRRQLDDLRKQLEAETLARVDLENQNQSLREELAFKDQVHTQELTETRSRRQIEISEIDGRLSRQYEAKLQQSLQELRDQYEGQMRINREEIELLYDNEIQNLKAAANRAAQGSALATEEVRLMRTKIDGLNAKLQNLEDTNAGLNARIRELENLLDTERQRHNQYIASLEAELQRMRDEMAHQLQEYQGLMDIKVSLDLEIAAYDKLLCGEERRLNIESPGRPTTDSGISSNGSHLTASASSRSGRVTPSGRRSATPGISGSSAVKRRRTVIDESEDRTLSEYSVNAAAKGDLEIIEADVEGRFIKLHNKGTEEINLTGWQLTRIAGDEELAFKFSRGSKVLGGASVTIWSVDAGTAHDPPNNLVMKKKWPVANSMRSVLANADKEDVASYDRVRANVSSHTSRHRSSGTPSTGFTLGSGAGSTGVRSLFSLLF

Protein sequences, listed by entry. Tags and fused reporters are not part of them.
UniProt Q7JW27: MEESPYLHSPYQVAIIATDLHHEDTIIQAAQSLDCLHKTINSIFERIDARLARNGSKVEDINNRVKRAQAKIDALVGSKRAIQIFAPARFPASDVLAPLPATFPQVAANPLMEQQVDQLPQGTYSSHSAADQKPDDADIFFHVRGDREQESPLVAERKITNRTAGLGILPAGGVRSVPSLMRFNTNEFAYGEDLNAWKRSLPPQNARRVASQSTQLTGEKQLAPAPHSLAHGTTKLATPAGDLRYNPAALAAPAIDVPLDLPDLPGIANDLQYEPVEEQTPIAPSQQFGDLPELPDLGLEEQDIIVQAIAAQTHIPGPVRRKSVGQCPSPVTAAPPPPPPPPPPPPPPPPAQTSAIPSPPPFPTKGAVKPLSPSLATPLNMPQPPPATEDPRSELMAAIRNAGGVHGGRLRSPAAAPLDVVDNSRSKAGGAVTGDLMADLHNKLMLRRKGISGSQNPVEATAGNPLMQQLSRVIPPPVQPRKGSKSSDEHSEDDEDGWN

Test [3] addresses T2, Lamin B (Drosophila (endogenous in Kc167 cells)) (UniProt P08928).
T2 sequence: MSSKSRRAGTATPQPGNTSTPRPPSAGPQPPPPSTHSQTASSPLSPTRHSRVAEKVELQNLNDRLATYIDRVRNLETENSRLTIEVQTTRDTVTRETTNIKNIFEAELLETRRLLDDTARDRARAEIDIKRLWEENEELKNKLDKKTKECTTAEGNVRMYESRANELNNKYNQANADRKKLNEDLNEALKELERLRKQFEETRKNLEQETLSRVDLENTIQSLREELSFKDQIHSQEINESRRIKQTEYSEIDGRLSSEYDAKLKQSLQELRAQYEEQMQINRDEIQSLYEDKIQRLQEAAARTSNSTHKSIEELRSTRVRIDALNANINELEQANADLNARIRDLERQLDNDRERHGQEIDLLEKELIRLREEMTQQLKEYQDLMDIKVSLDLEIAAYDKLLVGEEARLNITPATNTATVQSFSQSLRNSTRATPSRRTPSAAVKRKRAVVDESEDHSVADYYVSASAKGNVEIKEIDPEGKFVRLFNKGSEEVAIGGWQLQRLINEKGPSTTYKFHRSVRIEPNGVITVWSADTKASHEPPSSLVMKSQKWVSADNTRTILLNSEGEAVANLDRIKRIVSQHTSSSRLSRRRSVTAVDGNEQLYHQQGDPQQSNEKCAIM

In test [4] the target is T3, Strumpellin (Drosophila (endogenous in Kc167 cells)) (UniProt Q9VUY8).
T3 sequence: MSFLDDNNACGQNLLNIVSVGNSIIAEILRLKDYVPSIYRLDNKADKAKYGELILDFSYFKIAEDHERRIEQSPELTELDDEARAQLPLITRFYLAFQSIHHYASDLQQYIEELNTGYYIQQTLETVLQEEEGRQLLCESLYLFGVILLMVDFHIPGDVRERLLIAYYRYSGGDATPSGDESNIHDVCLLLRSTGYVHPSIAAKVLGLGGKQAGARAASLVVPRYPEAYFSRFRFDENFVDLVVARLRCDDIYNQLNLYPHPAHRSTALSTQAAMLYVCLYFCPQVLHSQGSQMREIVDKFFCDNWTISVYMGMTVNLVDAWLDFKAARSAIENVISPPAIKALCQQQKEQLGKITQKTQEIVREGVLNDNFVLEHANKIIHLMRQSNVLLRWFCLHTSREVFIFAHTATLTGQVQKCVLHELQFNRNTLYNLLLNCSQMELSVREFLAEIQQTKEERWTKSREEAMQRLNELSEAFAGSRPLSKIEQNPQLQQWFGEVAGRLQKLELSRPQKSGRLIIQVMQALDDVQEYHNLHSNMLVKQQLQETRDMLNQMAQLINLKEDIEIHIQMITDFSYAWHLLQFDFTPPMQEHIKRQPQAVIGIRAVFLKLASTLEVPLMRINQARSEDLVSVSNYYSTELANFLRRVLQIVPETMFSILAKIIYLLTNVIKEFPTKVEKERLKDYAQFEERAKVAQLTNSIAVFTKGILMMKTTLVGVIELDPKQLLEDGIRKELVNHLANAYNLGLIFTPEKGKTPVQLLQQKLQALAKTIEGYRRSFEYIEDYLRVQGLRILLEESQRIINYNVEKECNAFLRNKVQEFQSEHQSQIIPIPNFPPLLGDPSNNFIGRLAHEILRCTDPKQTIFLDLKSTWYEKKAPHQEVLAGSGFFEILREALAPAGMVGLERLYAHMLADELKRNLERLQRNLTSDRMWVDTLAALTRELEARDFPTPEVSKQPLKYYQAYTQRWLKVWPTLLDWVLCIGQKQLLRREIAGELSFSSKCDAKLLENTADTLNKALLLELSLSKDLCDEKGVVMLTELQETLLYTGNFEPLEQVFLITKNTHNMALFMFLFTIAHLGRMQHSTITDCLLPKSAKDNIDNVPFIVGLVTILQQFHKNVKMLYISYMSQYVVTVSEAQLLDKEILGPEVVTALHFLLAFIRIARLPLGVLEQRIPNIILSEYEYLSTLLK

Test [5] addresses T4, CCDC53 (Drosophila (endogenous in Kc167 cells)) (UniProt Q9VLT8).
T4 sequence: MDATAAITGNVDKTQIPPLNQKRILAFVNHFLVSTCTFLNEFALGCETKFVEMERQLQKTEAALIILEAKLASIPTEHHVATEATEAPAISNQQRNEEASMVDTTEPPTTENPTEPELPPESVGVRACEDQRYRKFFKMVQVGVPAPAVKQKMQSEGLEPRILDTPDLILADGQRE

Results are given in words; binding and its absence hold for the method and conditions named. In cells and extracts the contact can be indirect. Some entries that bind do so weakly or less than the wild type.

B1: FAM21 (protein, UniProt A1ZBW7 1-1469)
chain: MDISADVDQIIAQAPDWTFAGDCALLALMKRISQNLEERGERTSRNLRDFETSVKQVDIALNNATTSLRSLQFGNQFVEYRVEEVDDADLAMPEEKKKKPELPLKSSEELAKEFLENNLRMFRKNYEPVTIEVPDSDDEDGPVHSTTVFRAKNPYDAIPLPYIIGTKEWQEHKYAGLYDSKENSEDDRSEEFSSSSSDEKEPETKKIATPANKLEEQHLSDSSSLASFAREPAIVSPVINPAVQVAEPVIRTQPRPIINSQRNPHERDMFAALRQSPPSDDPPSTSSSPTSSPAFRNPSSRLPIVSTASLSSSSSSPAQQPPRLFDEAVSTQTPKEAEIKPSQTKRMPVNLFNEDEFKSFMSEIVDKVQSKTPSSSVSPATTISTKEPPKTKKPVEEYPKPGPPKQIVEQTVPKRVNLFDDSPPLSPTPRSEPVFNNTKATGAIPKRSPVVVANNDEDNSLFGSSPAMPKENPSKKPPKPVTKSLFDDDLEDDDFLSSFTPKAKPPEQKLLSKPKPSLFDDDDLDIDDIFTKPSAQPKKLSERVAGKTSLFEDDDQDDVTDLFGSKKAKVIPKETSSGVSPNKNVETPVASKKSLFDDIEDEDLFGTPKAKNLIRSEPDNDPEAVGEDKKQSEIAEQKSKNIETGEKQHQVIAENASVPILRDSPPPMEVTEQKSDDKEWEAVKDDTSAANITKSKDLFSEDLTDDELFSSTSNNMAEPKSANETNEFNKPIEKYTSQTEENVSPVNPPTKLSIKPTDLFNEDFSDDDTFLSASMSKNEPLVGTENEDIKKPSEVQLVKEIKAEELPQQLPENKIYEITAVVEKDELVPEMLSKPQIDEPVSETPPPDDYQSNVDPIISMVADVTNKTSVDTLTPRKPADLAAAQQIMQNYSNLFSDEPPDDSEFFQTLGSSGLSSLSASKIFDNEHDFFEPALPNIPSATKPSPVTPGDQPSVSSDYGAMCLFSDVPPEDNDHAGEEVQKEAEPQKDELASTTRIHTIFYDDFSETARAGAVQPAPKRFPFDDEPPPADETDRSEVKETPELQKPTSPVKKLKMPNININVHALLPGSGSVPKLIRKQESSSSERDEPQATVQTEAEAPSSGQNTVSSADGVLQHVNKSRARGPAKRRPSTRRGRKENYAKSLLDAGQNEGPTASTRDSPEVEHSERSSIKAPSPQYVKPEKLFSTPAQQIQPQLQRPPPSNTGGSFLDSPDEDDSFFNSVPTKTVEGKQGTDPPKSYRSFLDSPDADDKLFSDLENNKAGINVVPVEKKPPKMANSFLASPDEDDFLFDSVKTNATTTAQKAFAAEIMNAFQKVTTAPPKPSNAKEAAKPKSQAAPKLFDDSDDDDDDLFARAPSIQTASKPVQAKQPPKPAATSLFSSDDEEAEVPVKSAPAKKLPVKPSKSLFSDDDDDDDLFGGSSTSKAAAAKKTKPAARTASKPPASKTTTPTATIPSNSGDNPLADLLDFK
As for B1, the binding result in test [1] is recorded as “binds”; in test [2], “no binding”; in test [3], “no binding”; in test [4], “binds”; in test [5] it was “binds”.

(Values after doi:10.1101/2019.12.18.881763.)
